# Patent US7220849B2, “Enhanced gamma-carboxylation of recombinant vitamin K-dependent clotting factor” (The Children's Hospital of Philadelphia, priority 1999, dated 2007)
# At least one structure is not confirmed: it was looked up by name or label, or the drawing left a doubt. Peptide text beside a SMILES is read from it.
# Molecular target: T1, gamma-glutamyl carboxylase (Homo sapiens, UniProt P38435)
# T1 sequence (P38435 1-758): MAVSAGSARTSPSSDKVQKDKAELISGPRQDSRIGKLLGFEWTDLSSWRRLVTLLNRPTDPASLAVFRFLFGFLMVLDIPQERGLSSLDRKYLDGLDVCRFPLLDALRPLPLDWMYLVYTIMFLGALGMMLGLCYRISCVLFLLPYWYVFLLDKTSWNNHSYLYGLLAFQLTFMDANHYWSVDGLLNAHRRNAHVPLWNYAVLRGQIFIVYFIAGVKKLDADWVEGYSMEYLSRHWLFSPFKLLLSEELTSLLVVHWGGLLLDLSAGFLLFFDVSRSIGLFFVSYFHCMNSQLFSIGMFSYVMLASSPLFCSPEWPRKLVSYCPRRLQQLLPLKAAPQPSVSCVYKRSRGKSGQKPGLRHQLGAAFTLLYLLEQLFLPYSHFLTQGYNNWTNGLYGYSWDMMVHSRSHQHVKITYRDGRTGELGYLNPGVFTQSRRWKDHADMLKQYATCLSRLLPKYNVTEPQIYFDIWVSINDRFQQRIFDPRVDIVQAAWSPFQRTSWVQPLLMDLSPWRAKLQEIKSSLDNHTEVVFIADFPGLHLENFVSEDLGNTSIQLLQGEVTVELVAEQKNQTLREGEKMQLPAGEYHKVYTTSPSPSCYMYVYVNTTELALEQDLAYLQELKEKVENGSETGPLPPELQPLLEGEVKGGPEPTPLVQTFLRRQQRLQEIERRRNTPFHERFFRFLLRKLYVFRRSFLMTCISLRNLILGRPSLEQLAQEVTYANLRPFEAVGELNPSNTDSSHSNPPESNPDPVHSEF
# Experiment: Propeptide binding to the gamma-glutamyl carboxylase (inhibition constant toward a FIX propeptide/γ-carboxyglutamic acid substrate)
compound,measurement,value
CC(C)C[C@H](NC(=O)[C@H](Cc1ccccc1)NC(=O)[C@@H](NC(=O)[C@H](C)N)C(C)C)C(=O)N[C@@H](CO)C(=O)N[C@@H](CCCNC(=N)N)C(=O)N[C@@H](CCC(=O)O)C(=O)N[C@@H](CCC(N)=O)C(=O)N[C@@H](C)C(=O)N[C@@H](CC(N)=O)C(=O)N[C@@H](CCC(N)=O)C(=O)N[C@H](C(=O)N[C@@H](CC(C)C)C(=O)N[C@@H](CCC(N)=O)C(=O)N[C@@H](CCCNC(=N)N)C(=O)N[C@@H](CCCNC(=N)N)C(=O)N[C@@H](CCCNC(=N)N)C(=O)N[C@@H](CCCNC(=N)N)C(=O)O)C(C)C [consensus propeptide] (H-AVFLSREQANQVLQRRRR-OH; N-terminus and C-terminus assumed),Ki,0.43 nM
